## Assay results

From PubChem BioAssay record AID504749 (NCATS, 2011).

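Malaria parasite (P. falciparum) lines kept in red blood cells; parasite DNA is measured by SYBR Green fluorescence after lysis, 72 h after compound addition.
Each compound was titrated across a series from about 0.000037 to 29 µM.
The number is the fitted AC50, the concentration giving a half-maximal change in signal; a lower value means higher potency, whether the curve shows a decrease or an increase.
Calls follow the curve class and fit quality: every row here is inconclusive, covering signal-raising curves and weak, poorly fitted, partial or highest-dose-only inhibition curves.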

Values are in µM.
All entries here are filed as inconclusive.
These entries are mostly ones the record files as inconclusive; other results of the assay are not listed here.
Potencies fitted to partial, single-point or poorly fitting curves are rough.

compound	tested on / at	Potency (µM)	remark
NC(=O)N/N=C/c1ccc([N+](=O)[O-])o1	CP247	17.78	inhibitor, single point
NC(=O)N/N=C/c1ccc([N+](=O)[O-])o1	CP305	19.01	inhibitor, single point
NC(=O)N/N=C/c1ccc([N+](=O)[O-])o1	CP194	19.01	inhibitor, partial curve, poor fit
NC(=O)N/N=C/c1ccc([N+](=O)[O-])o1	CP238	12.59	inhibitor, single point
NC(=O)N/N=C/c1ccc([N+](=O)[O-])o1	CP215	15.1	inhibitor, single point
NC(=O)N/N=C/c1ccc([N+](=O)[O-])o1	CP297	16.94	inhibitor, single point
NC(=O)N/N=C/c1ccc([N+](=O)[O-])o1	CP203	13.46	inhibitor, single point
NC(=O)N/N=C/c1ccc([N+](=O)[O-])o1	CP256	10	inhibitor, partial curve
NC(=O)N/N=C/c1ccc([N+](=O)[O-])o1	CP191	11.22	inhibitor, single point
[Cl-].[Cl-].[Hg+2]	CP269	15.1	inhibitor, single point
[Cl-].[Cl-].[Hg+2]	CP252	11.22	inhibitor, single point
[Cl-].[Cl-].[Hg+2]	AA1029	17.78	inhibitor, single point
[Cl-].[Cl-].[Hg+2]	AS120	10	inhibitor, partial curve
[Cl-].[Cl-].[Hg+2]	PC26	9.528	inhibitor, partial curve, poor fit
[Cl-].[Cl-].[Hg+2]	CP260	11.22	inhibitor, single point
[Cl-].[Cl-].[Hg+2]	PC15	11.22	inhibitor, single point
[Cl-].[Cl-].[Hg+2]	CP329	19.01	inhibitor, single point
[Cl-].[Cl-].[Hg+2]	CP297	19.01	inhibitor, single point
[Cl-].[Cl-].[Hg+2]	ATS189	10	inhibitor, single point
[Cl-].[Cl-].[Hg+2]	ATS95	8.912	inhibitor, single point
[Cl-].[Cl-].[Hg+2]	P93_24	14.13	inhibitor, single point
[Cl-].[Cl-].[Hg+2]	CP268	10.69	inhibitor, partial curve, poor fit
[Cl-].[Cl-].[Hg+2]	CP335	16.94	inhibitor, single point
[Cl-].[Cl-].[Hg+2]	DIV17	10.69	inhibitor, partial curve
[Cl-].[Cl-].[Hg+2]	CP185	12.59	inhibitor, partial curve
[Cl-].[Cl-].[Hg+2]	P94_40	11.22	inhibitor, partial curve
[Cl-].[Cl-].[Hg+2]	CP237	17.78	inhibitor, single point
[Cl-].[Cl-].[Hg+2]	CP325	12	inhibitor, partial curve, poor fit
[Cl-].[Cl-].[Hg+2]	CP256	10	inhibitor, single point
[Cl-].[Cl-].[Hg+2]	CP211	15.1	inhibitor, single point
[Cl-].[Cl-].[Hg+2]	JCK	11.22	inhibitor, single point